The values that follow come from publication PMC5645313.

These are yes or no findings as the source states them, for the method shown. Binding can be weak; no strength is given.

The test addresses T1, biotin-GID1A (biotinylated GA receptor GID1A) (Arabidopsis thaliana) (UniProt Q9MAA7).
T1 sequence (chain, biotin (added by BirA during cell-free synthesis)): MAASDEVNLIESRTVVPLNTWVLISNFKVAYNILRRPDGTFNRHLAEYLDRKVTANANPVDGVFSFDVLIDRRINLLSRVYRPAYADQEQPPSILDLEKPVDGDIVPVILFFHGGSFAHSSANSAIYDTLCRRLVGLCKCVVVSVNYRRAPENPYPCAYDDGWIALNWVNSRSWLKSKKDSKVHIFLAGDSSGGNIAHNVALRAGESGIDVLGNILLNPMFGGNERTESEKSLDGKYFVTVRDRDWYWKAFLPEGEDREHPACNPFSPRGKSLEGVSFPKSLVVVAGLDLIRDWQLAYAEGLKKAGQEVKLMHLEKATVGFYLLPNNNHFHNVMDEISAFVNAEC
Kind of test: AlphaScreen or HTRF; screen of 204 FLAG-tagged Arabidopsis RING-type E3 ligases against biotinylated GID1A; 1 µl of each wheat cell-free product in 15 µl AlphaScreen buffer (100 mM Tris-HCl pH 8.0, 0.1% Tween20, 1 mg/ml BSA), 25 °C, 1 h; streptavidin donor beads, anti-FLAG M2 antibody with Protein A acceptor beads; background controlled with E. coli DHFR. In general terms: Bead proximity is the source of the signal in Alpha formats.

On to “FLAG-at1g47570 (RING-type E3 ubiquitin ligase) (Arabidopsis thaliana) (enzyme)”, for which the binding entry was “binds”.
